PubChem BioAssay AID1910 (Broad Institute, 2009)
About 950 (0.32%) of roughly 300,000 compounds were called active. The inconclusive results got no clear call from the source; some entries with a clear call stand among them for comparison.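 The calls were made as follows: active = mean activation of at least 10% of the iron chelator positive control signal, with at least half of replicates also reaching 10%; inconclusive = mean and replicate majority disagree about reaching 10%; inactive = mean and most replicates under 10%.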

Test: HIF pathway transcriptional activators, primary screen, cell-based, U2OS HRE-luciferase, luminescence (AID 1910)
Details: U2OS HRE-luciferase reporter, hits give high values, screened at 7.5 µM (by protocol), normalized: DMSO 0%, desferrioxamine 100%

Structure (SMILES)	activation
O=C(Nc1cccc(CNCCc2c[nH]c3ccccc23)c1)c1ccccc1Cl	inactive: -0.969%
CC1(OC(=O)c2cccs2)C(=O)C=C2C=C(C3CC3)OC=C2C1=O (stereo not drawn)	active: 112%
CCOC(=O)CN1C(=O)S/C(=C/c2ccc(OC)c([N+](=O)[O-])c2)C1=O	inactive: -0.174%
CCCc1nc(NCCCOCC)c2nnn(Cc3ccccc3)c2n1	inactive: 0.0521%
CC(=O)NCc1ccc(S(=O)(=O)N/N=C/c2ccc(N(C)C)cc2)cc1	inactive: -0.0854%
O=C(c1ccc(OC2CCN(Cc3ccc(F)cc3)CC2)cc1)N1CCCC1	active: 52.6%
COc1cc(SC)ccc1C(=O)NCCc1ccccc1	inconclusive: 8.4%
Cc1cc(/C=N/N2CCN(C)CC2)c(C)n1-c1ccc(Cl)cc1	inconclusive: 8.8%
CN(C)CCCN(C(=O)c1ccco1)c1nc2c(F)cccc2s1	inactive: 1.02%
c1ccc(OCc2nc(-c3ccncc3)no2)cc1	inconclusive: 7.13%
Cc1ccc(C(=O)Nc2c3c(nn2C(C)(C)C)CS(=O)(=O)C3)cc1C	inconclusive: 7.86%
CCOC(=O)c1[nH]cnc1N=Nc1c(O)ccc2ccccc12	active: 37.8%
CN(Cc1cccc(C(F)(F)F)c1)C(=O)C1CCC(=O)N(CC2CCCCC2)C1 (stereo not drawn)	inconclusive: 6.89%
O=C(NC12CC3CC(CC(C3)C1)C2)N1CCN(C(=O)C2CCCO2)CC1 (stereo not drawn)	inactive: -0.017%
CCc1nc(SCC(=O)c2ccccc2)c2ccccc2n1	inconclusive: 6.28%
Cc1ccc(CNc2ccc3c(c2)nc(C)n3C)cc1	inconclusive: 7.01%
CCCCCCN1C=CC=C/C1=C/C=C(C#N)C#N	inconclusive: 8.01%
C/C(=N/NC(=O)c1ccncc1)c1ccccc1	inactive: -0.0225%
COc1ccc(CCNC(=O)COC(=O)CCC(=O)c2ccc(F)cc2)cc1OC	active: 299%
Cc1ccc(NC(=O)C2CCN(C(=O)c3ccc(F)cc3)CC2)nc1	inactive: -0.304%

Part of the list above in another layout:

| Structure (SMILES) | activation |
| --- | --- |
| CCc1nc(SCC(=O)c2ccccc2)c2ccccc2n1 | inconclusive: 6.28% |
| Cc1ccc(CNc2ccc3c(c2)nc(C)n3C)cc1 | inconclusive: 7.01% |
| CCCCCCN1C=CC=C/C1=C/C=C(C#N)C#N | inconclusive: 8.01% |
| C/C(=N/NC(=O)c1ccncc1)c1ccccc1 | inactive: -0.0225% |
| COc1ccc(CCNC(=O)COC(=O)CCC(=O)c2ccc(F)cc2)cc1OC | active: 299% |

More results

Structure (SMILES)	activation
O=C(O/N=C1\CCCc2ccccc21)c1ccc(F)cc1	inactive: 0.153%
CCSc1cc(C)nc2c(-c3ccccc3)cnn12	inconclusive: 6.98%
Clc1ccc(COn2nnc3ccccc32)c(Cl)c1	inactive: -27.3%
O=c1c2ccccc2nc(COc2ccccc2)n1/N=C/c1cc([N+](=O)[O-])ccc1O	active: 11.2%
CCOc1ccc(NC(=O)NNC(=O)c2cc3ccccc3cc2O)cc1	inactive: -0.338%
CCOC(=O)c1sc(NC(=O)CCCn2nc([N+](=O)[O-])c(Cl)c2C)c(C(=O)OCC)c1C	inactive: -0.363%
Cc1ccc(-c2csc3nc(SCC(=O)N(C)C)n(Cc4ccccc4)c(=O)c23)cc1	inconclusive: 9.49%
COc1ccccc1N(CC(=O)NC1CCCCC1)S(C)(=O)=O	active: 93.6%
NS(=O)(=O)c1ccc(NC(=O)c2ccc(CSc3ccccc3)o2)cc1	inconclusive: 8.96%
CCCN(CC(=O)Nc1ccccc1C)C(=O)C1CC(=O)N(Cc2ccccc2)C1 (stereo not drawn)	inactive: 0.941%
COc1ccc(N=Nc2ccc(O)c3ncccc23)cc1	active: 91.6%
Cc1ccc(N(C)S(=O)(=O)c2ccc(-c3cc(C)no3)s2)cc1	active: 9.72%
Cc1ccc(C)c(-n2nnnc2Sc2nnnn2-c2ccccc2)c1	inconclusive: 9.48%
COc1ccc(OC)c2[nH]c(C(=O)N/N=C/c3ccccc3O)cc12	inconclusive: 9.12%
CCOc1cc(CNc2ccc(CNc3ncn[nH]3)cc2)ccc1OCc1ccccc1	inactive: -0.471%
OCCC#Cc1ccc(CN2CCN(Cc3ccccc3)C(CCO)C2)cc1 (stereo not drawn)	inconclusive: 5.22%
CSc1cccc(CN(C)C(=O)C2CCC(=O)N(CCCN3CCCC3=O)C2)c1 (stereo not drawn)	inactive: 2.79%
O=C(N/N=C/C(Br)=C\c1ccccc1)c1ccco1	inconclusive: 9.15%
Cc1ccc(S(=O)(=O)/N=C2/NC(=O)/C(=C/c3cc([N+](=O)[O-])ccc3O)S2)cc1	inconclusive: 6.07%
Cc1ccc(-c2cc(C(F)(F)F)n3nc(C(=O)Nc4c(C)n(C)n(-c5ccccc5)c4=O)cc3n2)cc1	inconclusive: 3.51%

Structure (SMILES)	activation
C=CCN(c1ccccc1)S(=O)(=O)c1cccc(C(=O)Nc2ncccc2O)c1	inconclusive: 6.62%
COC(=O)CNC(=O)CSc1nnc2cc(C)c3ccccc3n12	inconclusive: 7.72%
S=c1[nH]nc(-c2cccc(Br)c2)o1	inactive: 0.434%
COc1ccc(C(=O)/C=C/c2cccc(OCc3ccccc3)c2)cc1CSCC(=O)O	inactive: 0.363%
O=C(c1ccccc1-c1ncc[nH]1)N1CCCC(Nc2ccc(F)cc2)C1 (stereo not drawn)	inactive: -0.244%
CN(C)S(=O)(=O)c1cccc(-c2nnc(SCC(=O)NCCCCCC(=O)O)n2-c2ccc(F)cc2)c1	inactive: 0.975%
CN(C(=O)COC(=O)c1ccc(F)c(S(=O)(=O)N2CCOCC2)c1)C1CCS(=O)(=O)C1 (stereo not drawn)	inconclusive: 8.37%
Cc1cccc(-n2ncc3c(NCc4ccco4)ncnc32)c1	inconclusive: 8.88%
Cc1csc(=O)n1CC(=O)OCC(=O)NCc1ccc(F)cc1	inactive: 0.0639%
CCOc1ccc(-n2c(SCC(=O)N3CCC(C(=O)O)CC3)nc3ccccc3c2=O)cc1	inactive: -0.017%
COc1ccc2[nH]c(C(=O)N/N=C/c3ccccc3OC)cc2c1	inconclusive: 4.19%
Cc1cc(N/N=C/c2ccc(O)cc2O)nc(-c2ccccc2O)n1	active: 20.8%
Fc1cccc(/C=N/Nc2nccnc2Cl)c1	active: 78.4%
Cc1cc(C)c2c(N)c(C(=O)Nc3ccccc3F)sc2n1	active: 29.6%
Cc1ccc(C(C)C)c(OCc2ccc(C(=O)N/N=C/c3cccc(O)c3O)cc2)c1	active: 70%
Cc1ccc(NC(=O)Cn2cnc3c(=O)n(C)c(=O)n(C)c32)c(C)c1	inconclusive: 5.03%
Cc1nnc(SCc2cccc(Cl)c2)n(N)c1=O	inconclusive: 6.27%
Cc1ccccc1-c1nc2ccccc2c(=O)n1/N=C/c1ccccc1[N+](=O)[O-]	inconclusive: 6.89%
